At least one compound was matched to its structure with a doubt left.
Tested on: distal colon
Experiment: Functional in vitro assay: antagonism of serotonin contraction of rat distal colon longitudinal muscle
Conditions: vs serotonin
Excerpt: Functional In vitro Assay:
Sprague-Dawley rats (200-250g; Laboratory Supply, Indianapolis, Ind.) were sacrificed by cervical dislocation and 8 cm segment of distal colon was removed and washed in ice cold modified Kreb's solution of the following composition (millimolar): Nacl, 118.2; Kcl, 4.6; Cacl2. H2 O, 1.6; KH2 PO4, 1.2; MgSO4, 1.2; dextrose, 10.0; and NaHCO3, 24.8. The colon was mounted on a glass rod and the longitudinal muscle layer with attached myenteric plexi was removed and mounted in organ baths, containing above described Kreb's solution maintained at 37° C. and equilibrated with 95% O2 and 5% CO2. Tissues were placed under 2 g tension and allowed to stabilize for 1 hour. Isometric contractions were recorded as changes in grams of force using grass FT03 transducers and MI^2 - computerized dynograph system. […] Maximum response to each concentration was determined and digitized. […] Apparent antagonist dissociation constants (KB) were determined for each concentration of antagonist according to the following equation:
KB =[B]/(dose ratio-1), where [B] is the concentration of the antagonist and dose ratio is the ED50 of the agonist in the presence of antagonist divided by the control ED50. The results were expressed as the negative logarithm of the KB (i.e., -log KB) (Br. J. Pharmacol. Methods 4:4165, (1980). […]

## Cc1ccc2[nH]c3c(c2c1)CCNC3C(C)c1cccc2ccccc12 (racemic) [Example 49, (±) 6-methyl-1-(1-naphthalenyl-1-ethyl)-1,2,3,4-tetrahydro-9H-pyrido [3,4-b]indole (Z) 2-butenedioate]
  pA2 (-log KB): 8.2
